Measured values taken from the supplement of paper PMC10849652.
The list shows a part of the results.

Sequences of proteins named here, by UniProt entry; tags and fusion partners are left off. A change or cut given only in a name is not applied to a line headed by its entry.
UniProt Q9HCM4: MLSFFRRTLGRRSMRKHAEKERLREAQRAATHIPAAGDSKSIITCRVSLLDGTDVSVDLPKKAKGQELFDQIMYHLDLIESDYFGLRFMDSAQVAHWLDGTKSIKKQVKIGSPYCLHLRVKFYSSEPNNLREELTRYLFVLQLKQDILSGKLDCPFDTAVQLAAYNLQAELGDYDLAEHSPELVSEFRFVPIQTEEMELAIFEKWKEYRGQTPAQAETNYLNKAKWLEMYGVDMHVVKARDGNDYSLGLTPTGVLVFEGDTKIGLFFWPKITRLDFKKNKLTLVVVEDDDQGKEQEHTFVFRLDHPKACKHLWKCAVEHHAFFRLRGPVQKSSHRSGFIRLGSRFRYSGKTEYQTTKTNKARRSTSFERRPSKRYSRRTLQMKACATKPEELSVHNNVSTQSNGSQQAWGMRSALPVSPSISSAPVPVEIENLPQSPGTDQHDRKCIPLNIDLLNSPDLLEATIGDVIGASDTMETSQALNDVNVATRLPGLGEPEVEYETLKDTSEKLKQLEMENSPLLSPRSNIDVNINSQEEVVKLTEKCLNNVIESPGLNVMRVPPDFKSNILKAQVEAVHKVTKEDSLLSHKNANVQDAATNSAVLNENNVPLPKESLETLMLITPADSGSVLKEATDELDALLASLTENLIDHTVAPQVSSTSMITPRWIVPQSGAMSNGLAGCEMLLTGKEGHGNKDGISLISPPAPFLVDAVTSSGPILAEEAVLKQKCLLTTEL
UniProt Q9Y227: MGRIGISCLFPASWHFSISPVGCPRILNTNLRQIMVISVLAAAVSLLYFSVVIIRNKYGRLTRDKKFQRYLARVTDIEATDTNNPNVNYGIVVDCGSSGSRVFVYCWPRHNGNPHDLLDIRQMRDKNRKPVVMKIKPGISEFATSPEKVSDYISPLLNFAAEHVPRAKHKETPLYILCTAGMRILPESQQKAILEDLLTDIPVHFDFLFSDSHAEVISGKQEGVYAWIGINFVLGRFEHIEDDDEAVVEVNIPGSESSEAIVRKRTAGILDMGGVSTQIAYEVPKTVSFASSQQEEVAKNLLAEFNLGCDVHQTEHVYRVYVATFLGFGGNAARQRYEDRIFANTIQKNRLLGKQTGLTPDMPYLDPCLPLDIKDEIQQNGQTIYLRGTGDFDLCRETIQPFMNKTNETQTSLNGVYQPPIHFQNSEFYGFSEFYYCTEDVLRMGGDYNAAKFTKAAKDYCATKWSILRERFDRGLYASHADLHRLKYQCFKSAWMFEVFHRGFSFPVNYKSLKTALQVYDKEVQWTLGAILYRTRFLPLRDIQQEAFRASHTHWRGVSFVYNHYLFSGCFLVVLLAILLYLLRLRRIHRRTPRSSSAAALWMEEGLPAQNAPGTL
UniProt Q8N766: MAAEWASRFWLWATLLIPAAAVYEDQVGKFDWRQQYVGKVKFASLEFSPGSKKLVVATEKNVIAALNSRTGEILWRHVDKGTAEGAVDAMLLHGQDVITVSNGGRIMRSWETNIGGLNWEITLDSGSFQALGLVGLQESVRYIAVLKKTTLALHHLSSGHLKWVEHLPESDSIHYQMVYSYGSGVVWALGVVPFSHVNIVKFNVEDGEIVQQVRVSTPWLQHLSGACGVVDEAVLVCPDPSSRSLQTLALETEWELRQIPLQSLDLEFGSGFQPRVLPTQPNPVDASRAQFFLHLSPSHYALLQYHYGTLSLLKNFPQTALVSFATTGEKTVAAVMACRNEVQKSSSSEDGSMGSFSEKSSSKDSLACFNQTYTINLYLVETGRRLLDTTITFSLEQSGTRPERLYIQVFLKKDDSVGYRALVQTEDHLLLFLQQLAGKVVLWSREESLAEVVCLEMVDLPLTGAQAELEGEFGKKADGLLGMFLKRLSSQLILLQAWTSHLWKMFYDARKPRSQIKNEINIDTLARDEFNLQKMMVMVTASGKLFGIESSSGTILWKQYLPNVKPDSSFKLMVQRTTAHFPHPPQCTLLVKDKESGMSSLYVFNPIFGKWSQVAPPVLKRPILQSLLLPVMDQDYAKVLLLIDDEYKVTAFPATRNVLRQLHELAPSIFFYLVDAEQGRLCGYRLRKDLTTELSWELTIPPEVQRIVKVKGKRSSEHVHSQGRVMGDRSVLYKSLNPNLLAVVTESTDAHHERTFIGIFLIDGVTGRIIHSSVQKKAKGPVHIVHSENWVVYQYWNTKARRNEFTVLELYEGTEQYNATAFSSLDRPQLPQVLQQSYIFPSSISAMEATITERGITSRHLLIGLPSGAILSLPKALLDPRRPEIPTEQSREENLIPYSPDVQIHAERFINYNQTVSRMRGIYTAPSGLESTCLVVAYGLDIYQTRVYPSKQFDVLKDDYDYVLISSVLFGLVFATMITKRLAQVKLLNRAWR
UniProt Q52LR7, whole entry, looked up: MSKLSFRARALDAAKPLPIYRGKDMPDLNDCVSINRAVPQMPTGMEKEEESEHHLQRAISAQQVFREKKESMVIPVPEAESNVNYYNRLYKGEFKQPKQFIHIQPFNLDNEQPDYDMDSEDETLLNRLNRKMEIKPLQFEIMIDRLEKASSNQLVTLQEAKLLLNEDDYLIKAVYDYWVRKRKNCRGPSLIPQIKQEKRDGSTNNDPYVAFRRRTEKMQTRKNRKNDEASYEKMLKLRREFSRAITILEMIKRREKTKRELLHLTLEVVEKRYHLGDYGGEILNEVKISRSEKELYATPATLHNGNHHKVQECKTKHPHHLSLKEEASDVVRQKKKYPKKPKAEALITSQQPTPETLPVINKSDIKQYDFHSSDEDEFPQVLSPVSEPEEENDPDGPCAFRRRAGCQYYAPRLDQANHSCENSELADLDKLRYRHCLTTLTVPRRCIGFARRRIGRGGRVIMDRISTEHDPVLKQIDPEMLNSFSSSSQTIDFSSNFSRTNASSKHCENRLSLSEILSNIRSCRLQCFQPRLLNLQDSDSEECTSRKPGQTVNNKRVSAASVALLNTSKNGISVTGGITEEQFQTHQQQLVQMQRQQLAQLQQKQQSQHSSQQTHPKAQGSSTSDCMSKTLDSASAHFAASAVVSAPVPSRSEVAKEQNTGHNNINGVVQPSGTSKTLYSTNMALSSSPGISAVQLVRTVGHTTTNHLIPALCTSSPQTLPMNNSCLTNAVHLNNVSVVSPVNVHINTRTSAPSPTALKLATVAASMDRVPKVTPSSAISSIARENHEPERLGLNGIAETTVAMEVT
UniProt A1L3X0: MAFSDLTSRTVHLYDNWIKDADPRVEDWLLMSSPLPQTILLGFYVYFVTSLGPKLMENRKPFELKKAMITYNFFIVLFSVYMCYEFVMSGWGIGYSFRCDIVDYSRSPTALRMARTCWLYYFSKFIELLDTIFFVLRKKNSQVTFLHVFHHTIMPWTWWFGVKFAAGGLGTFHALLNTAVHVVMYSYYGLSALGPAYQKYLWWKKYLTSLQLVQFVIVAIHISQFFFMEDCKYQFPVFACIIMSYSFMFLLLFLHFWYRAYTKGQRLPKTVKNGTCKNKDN
UniProt Q9NQZ7: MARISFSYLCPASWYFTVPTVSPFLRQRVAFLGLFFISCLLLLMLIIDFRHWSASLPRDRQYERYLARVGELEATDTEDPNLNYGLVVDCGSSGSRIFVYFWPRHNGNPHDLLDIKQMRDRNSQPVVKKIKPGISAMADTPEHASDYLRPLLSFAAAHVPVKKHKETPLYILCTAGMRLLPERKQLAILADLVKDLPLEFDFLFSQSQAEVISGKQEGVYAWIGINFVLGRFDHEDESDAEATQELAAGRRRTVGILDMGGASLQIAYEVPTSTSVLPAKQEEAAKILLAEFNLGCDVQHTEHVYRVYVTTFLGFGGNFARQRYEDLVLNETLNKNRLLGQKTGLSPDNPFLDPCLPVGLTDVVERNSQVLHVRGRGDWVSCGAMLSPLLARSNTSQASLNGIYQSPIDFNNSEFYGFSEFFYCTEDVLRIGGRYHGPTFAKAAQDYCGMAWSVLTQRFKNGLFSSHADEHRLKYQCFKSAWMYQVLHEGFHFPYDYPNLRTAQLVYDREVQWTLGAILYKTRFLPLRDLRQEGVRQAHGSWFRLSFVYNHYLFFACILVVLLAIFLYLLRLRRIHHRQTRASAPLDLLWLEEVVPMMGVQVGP
UniProt Q96C92: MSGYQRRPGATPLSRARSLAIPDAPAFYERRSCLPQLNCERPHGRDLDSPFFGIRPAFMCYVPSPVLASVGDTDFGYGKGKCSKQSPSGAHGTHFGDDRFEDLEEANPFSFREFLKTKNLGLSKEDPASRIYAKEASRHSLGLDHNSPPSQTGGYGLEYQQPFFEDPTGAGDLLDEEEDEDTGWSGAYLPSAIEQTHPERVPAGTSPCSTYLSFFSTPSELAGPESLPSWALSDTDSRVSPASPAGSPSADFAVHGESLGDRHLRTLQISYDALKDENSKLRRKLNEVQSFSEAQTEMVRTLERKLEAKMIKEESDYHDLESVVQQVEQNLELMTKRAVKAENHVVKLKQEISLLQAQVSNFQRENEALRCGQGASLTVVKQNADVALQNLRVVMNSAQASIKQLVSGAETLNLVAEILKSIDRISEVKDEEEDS

Legend:
Assay in all cases: log2 fold change, soluble protein after heating vs DMSO (PISA); higher = thermal stabilisation; K562 lysate, 10 uM; active = over 0.2 and 3.5 SD of the protein, either way, in both replicates (recomputed)
alvocidib = compound: CN1CC[C@H](c2c(O)cc(O)c3c(=O)cc(-c4ccccc4Cl)oc23)[C@H](O)C1 [alvocidib]
Method in brief: (§1)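 Dounce homogenisation of K562 pellets in PBS pH 7.4 with 1 mM MgCl2 produced a crude extract, used at 1 mg/mL protein. Exposure to 10 μM compound lasted 30 min, and aliquots were then heated for 3 min across 48°C-58°C, pooled and brought to 0.5% NP-40 at 4°C. The supernatant after 21,000xg for 90 min was quantified by TMTpro 16plex LC-MS/MS with channel sums equalised. Duplicate values are given as log-two fold change in thermal stability relative to solvent controls.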

[1] = compound: CNC(=O)C1=CC=CC=C1NC2=NC(=NC=C2Cl)NC3=C(C=C(C=C3)N4CCOCC4)OC
Method in brief: as §1

encorafenib = compound: COC(=O)N[C@@H](C)CNc1nccc(-c2cn(C(C)C)nc2-c2cc(Cl)cc(NS(C)(=O)=O)c2F)n1 [encorafenib]
Method in brief: as §1

[2] = compound: COC(=O)[C@H](CCSC)NC(=O)C1=C(C=C(C=C1)NC[C@H](CS)N)C2=CC=CC=C2
Method in brief: as §1

[3] = compound: COc1cc2nc(-c3cc(F)ccc3O)nc(N[C@@H]3CNC[C@H]3C(C)(C)O)c2cc1OC
Method in brief: as §1

lapatinib = compound: CS(=O)(=O)CCNCc1ccc(-c2ccc3ncnc(Nc4ccc(OCc5cccc(F)c5)c(Cl)c4)c3c2)o1 [lapatinib]
Method in brief: as §1

pictilisib = compound: CS(=O)(=O)N1CCN(Cc2cc3nc(-c4cccc5[nH]ncc45)nc(N4CCOCC4)c3s2)CC1 [pictilisib]
Method in brief: as §1

crizotinib = compound: C[C@@H](Oc1cc(-c2cnn(C3CCNCC3)c2)cnc1N)c1c(Cl)ccc(F)c1Cl [crizotinib]
Method in brief: as §1

[4] = compound: C[C@H](C1=CC=C(C=C1)C(=O)NC2=C3C=CNC3=NC=C2)N
Method in brief: as §1

gandotinib = compound: Cc1cc(Nc2cc(CN3CCOCC3)c3nc(C)c(Cc4ccc(Cl)cc4F)n3n2)n[nH]1 [gandotinib]
Method in brief: as §1

tozasertib = compound: Cc1cc(Nc2cc(N3CCN(C)CC3)nc(Sc3ccc(NC(=O)C4CC4)cc3)n2)n[nH]1 [tozasertib]
Method in brief: as §1

doramapimod = compound: Cc1ccc(-n2nc(C(C)(C)C)cc2NC(=O)Nc2ccc(OCCN3CCOCC3)c3ccccc23)cc1 [doramapimod]
Method in brief: as §1

bafetinib = compound: Cc1ccc(NC(=O)c2ccc(CN3CC[C@H](N(C)C)C3)c(C(F)(F)F)c2)cc1Nc1nccc(-c2cncnc2)n1 [bafetinib]
Method in brief: as §1

[5] = compound: Cc1cccc(CC(=O)N2CCc3c2ccc(-c2cn(C)c4ncnc(N)c24)c3F)n1
Method in brief: as §1

Tubastatin A = compound: CN1CCc2c(c3ccccc3n2Cc2ccc(C(=O)NO)cc2)C1 [Tubastatin A]
Method in brief: as §1

defactinib = compound: CNC(=O)c1ccc(Nc2ncc(C(F)(F)F)c(NCc3nccnc3N(C)S(C)(=O)=O)n2)cc1 [defactinib]
Method in brief: as §1

[6] = compound: CNc1nc(-c2ccc3c(N)n[nH]c3c2)cc(N2C[C@@H](C(=O)NC3CCCCC3)CC[C@H]2C)n1
Method in brief: as §1

duvelisib = compound: C[C@H](Nc1ncnc2nc[nH]c12)c1cc2cccc(Cl)c2c(=O)n1-c1ccccc1 [duvelisib]
Method in brief: as §1

alisertib = compound: COc1cc(Nc2ncc3c(n2)-c2ccc(Cl)cc2C(c2c(F)cccc2OC)=NC3)ccc1C(=O)O [alisertib]
Method in brief: as §1

gefitinib = compound: COc1cc2ncnc(Nc3ccc(F)c(Cl)c3)c2cc1OCCCN1CCOCC1 [gefitinib]
Method in brief: as §1

Measured: log2 fold change

EPB41L5 (UniProt Q9HCM4)
inactive: alvocidib -0.043 | [1] -0.122 | encorafenib 0.077 | [2] 0.093 | [3] 0.173 | lapatinib 0.069 | pictilisib -0.033 | crizotinib -0.079 | [4] -0.129 | gandotinib -0.027 | tozasertib 0.014 | doramapimod 0.155 | bafetinib -0.153 | [5] 0.09

ENTPD4 (UniProt Q9Y227)
inactive: Tubastatin A 0.058

EMC1 isoform 3 (UniProt Q8N766)
inactive: Tubastatin A 0.15 | [3] 0.033 | lapatinib -0.259 | crizotinib 0.032 | doramapimod 0.03

EPS15L1 (UniProt M0QY01)
inactive: alvocidib -0.011 | [1] 0.037 | defactinib 0.04 | [6] 0.079 | encorafenib -0.004 | [2] -0.021 | [3] 0.026 | lapatinib 0.014 | [4] -0.036 | duvelisib -0.02 | gandotinib 0.073 | tozasertib -0.07 | [5] -0.027

EPC2 (UniProt Q52LR7)
inactive: defactinib -0.042 | [6] 0.059 | encorafenib -0.028 | [2] 0.078 | [3] 0.02 | lapatinib 0.091 | pictilisib -0.066 | crizotinib 0.061 | duvelisib -0.077 | tozasertib 0.062 | doramapimod -0.047 | bafetinib 0.246

Copied from the listing (two entries):
ENTPD4 (UniProt Q9Y227)
inactive: Tubastatin A 0.058

EMC1 isoform 3 (UniProt Q8N766)
inactive: Tubastatin A 0.15 | [3] 0.033 | lapatinib -0.259 | crizotinib 0.032 | doramapimod 0.03

Remaining list, next part:

ELOVL7 (UniProt A1L3X0)
inactive: Tubastatin A -0.03 | [1] 0.016 | [6] 0.029 | alisertib 0.069 | [3] -0.048 | gefitinib 0.012 | lapatinib -0.122 | pictilisib -0.057 | duvelisib 0.045 | bafetinib -0.223

EIF3G (UniProt K7ENA8)
inactive: alvocidib 0.087 | [6] -0.097 | [3] 0.041 | lapatinib -0.141 | pictilisib -0.001 | [4] -0.009 | duvelisib -0.016 | gandotinib -0.153 | bafetinib 0.008 | [5] 0.087

ENTPD7 (UniProt Q9NQZ7)
inactive: alvocidib 0.078 | defactinib 0.027 | encorafenib 0.172 | [2] -0.133 | alisertib 0.01 | [3] -0.212 | gefitinib 0.172 | lapatinib 0.082 | [4] -0.121 | gandotinib -0.096 | tozasertib 0.023 | [5] 0.213

ENTR1 (UniProt Q96C92)
inactive: Tubastatin A -0.044 | defactinib -0.007 | encorafenib -0.066 | [2] -0.092 | alisertib 0.085 | gefitinib 0.225 | crizotinib -0.108 | tozasertib -0.001 | doramapimod 0.066

EPB41, A0A2R8Y783
inactive: alvocidib -0.248 | defactinib 0.05 | [6] -0.13 | encorafenib -0.523 | [2] 0.118 | [3] 0.029 | lapatinib -0.063 | pictilisib 0.04 | [4] 0.121 | duvelisib -0.089 | gandotinib -0.066 | tozasertib 0.061 | bafetinib 0.04 | [5] -0.006
